Assay results reported in patent US20090023697A1, “ANALGESIA METHOD” (Vernalis (R&D) Limited, priority 2003, published 2009).

Tested on: male Wistar rats
Assay: Tail flick latency (TFL) response to ip morphine: effect of sustained release neurosteroid on development of morphine tolerance

Structure (SMILES): CC(=O)[C@H]1CC[C@H]2[C@@H]3CC[C@H]4C[C@H](O)CC[C@]4(C)[C@H]3C(=O)C[C@]12C [alphaxalone]
- sedation observed during the course of the tolerance experiment (sc emulsions with morphine emulsion, alphadolone 250 mg/kg/day, alphaxalone 80 mg/kg/day): heavily sedated
- post treatment TFL values (6.4 mg/kg ip morphine, day 3) compared with vehicle treated controls (two days sc morphine emulsion plus sc emulsion of alphadolone 250 mg/kg/day or alphaxalone 80 mg/kg/day, Students t test): did not differ from those in vehicle treated controls
